The experiment deals with GST-VHL Y111H (human) (UniProt P40337). The experiment can be described thus: pull-down; GST or GST-fused VHL (100 ng) on glutathione agarose beads with Flag/Strep-tagged proteins purified from 293T cells (methods: 200 ng/sample); 50 mM Tris-HCl pH 7.5, 1% Triton X-100, 150 mM NaCl, 1 mM DTT, 0.5 mM EDTA; four washes; immunoblot; both purified. (A western blot detects proteins with antibodies after separation by electrophoresis.)

Sequences of proteins named here, by UniProt entry; tags and fusion partners are left off. A change or cut given only in a name is not applied to a line headed by its entry.
UniProt P40337: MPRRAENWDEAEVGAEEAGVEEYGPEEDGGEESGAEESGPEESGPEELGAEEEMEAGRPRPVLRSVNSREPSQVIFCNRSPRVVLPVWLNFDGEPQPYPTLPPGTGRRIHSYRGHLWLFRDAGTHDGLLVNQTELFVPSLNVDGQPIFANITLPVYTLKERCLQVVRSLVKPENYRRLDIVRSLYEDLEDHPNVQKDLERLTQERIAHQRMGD

Results are given in words; binding and its absence hold for the method and conditions named.

For the substance “Flag/strep-Beclin1 (from UniProt Q14457 1-450)”, the binding entry is reported as “no binding”.

The values are drawn from paper PMC10943020.
